Source: article PMC11658772
Results are given in words; binding and its absence hold for the method and conditions named. In cells and extracts the contact can be indirect. Some results given as binding are weak or reduced against the parent protein; the word gives no strength. Sequences can lack the tags named with a protein.

Assays:
[1] = target: T1, MSL1^WT-3xHA (Drosophila melanogaster) (UniProt P50535); assay: co-IP; Drosophila S2 cells co-transfected with MSL1*-3xHA and MSL2-3xFLAG, 48 hr; extract made with 420 mM NaCl; immunoprecipitation with anti-FLAG, anti-HA or mouse IgG (negative control) magnetic beads in buffer-150 (20 mM Tris-HCl pH 7.4, 150 mM NaCl, 10 mM MgCl2, 0.1% NP-40), overnight at 4 °C; immunoblot with anti-FLAG-HRP
T1 sequence: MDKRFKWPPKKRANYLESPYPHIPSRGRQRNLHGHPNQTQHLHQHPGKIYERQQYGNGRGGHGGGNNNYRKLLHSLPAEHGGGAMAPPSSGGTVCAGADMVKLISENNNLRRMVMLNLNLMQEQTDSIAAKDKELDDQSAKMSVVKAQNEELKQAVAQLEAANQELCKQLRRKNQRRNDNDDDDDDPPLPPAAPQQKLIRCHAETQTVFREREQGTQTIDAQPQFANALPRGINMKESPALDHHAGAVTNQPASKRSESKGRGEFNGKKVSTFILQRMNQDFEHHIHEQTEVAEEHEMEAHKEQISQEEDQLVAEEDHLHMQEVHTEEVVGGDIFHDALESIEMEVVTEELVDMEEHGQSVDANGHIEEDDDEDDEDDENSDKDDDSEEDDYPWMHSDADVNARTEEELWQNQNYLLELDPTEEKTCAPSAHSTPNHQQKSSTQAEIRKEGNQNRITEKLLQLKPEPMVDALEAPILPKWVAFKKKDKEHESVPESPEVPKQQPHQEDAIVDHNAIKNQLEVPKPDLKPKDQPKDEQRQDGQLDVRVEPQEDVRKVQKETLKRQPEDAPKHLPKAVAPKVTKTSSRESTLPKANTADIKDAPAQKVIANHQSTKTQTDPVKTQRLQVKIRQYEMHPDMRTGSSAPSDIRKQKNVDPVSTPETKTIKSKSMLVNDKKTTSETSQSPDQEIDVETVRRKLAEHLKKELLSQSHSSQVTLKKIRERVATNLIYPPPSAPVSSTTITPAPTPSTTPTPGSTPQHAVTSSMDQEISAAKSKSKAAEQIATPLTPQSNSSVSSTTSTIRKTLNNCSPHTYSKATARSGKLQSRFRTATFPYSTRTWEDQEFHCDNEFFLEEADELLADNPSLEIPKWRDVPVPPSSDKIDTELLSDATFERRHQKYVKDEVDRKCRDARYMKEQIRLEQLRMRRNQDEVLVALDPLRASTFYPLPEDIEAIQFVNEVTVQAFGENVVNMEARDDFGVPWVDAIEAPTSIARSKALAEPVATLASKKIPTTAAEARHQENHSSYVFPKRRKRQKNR

[2] = target: T2, MSL1^Δ41-85-3xHA (Drosophila melanogaster) (UniProt P50535); assay: as above
T2 sequence: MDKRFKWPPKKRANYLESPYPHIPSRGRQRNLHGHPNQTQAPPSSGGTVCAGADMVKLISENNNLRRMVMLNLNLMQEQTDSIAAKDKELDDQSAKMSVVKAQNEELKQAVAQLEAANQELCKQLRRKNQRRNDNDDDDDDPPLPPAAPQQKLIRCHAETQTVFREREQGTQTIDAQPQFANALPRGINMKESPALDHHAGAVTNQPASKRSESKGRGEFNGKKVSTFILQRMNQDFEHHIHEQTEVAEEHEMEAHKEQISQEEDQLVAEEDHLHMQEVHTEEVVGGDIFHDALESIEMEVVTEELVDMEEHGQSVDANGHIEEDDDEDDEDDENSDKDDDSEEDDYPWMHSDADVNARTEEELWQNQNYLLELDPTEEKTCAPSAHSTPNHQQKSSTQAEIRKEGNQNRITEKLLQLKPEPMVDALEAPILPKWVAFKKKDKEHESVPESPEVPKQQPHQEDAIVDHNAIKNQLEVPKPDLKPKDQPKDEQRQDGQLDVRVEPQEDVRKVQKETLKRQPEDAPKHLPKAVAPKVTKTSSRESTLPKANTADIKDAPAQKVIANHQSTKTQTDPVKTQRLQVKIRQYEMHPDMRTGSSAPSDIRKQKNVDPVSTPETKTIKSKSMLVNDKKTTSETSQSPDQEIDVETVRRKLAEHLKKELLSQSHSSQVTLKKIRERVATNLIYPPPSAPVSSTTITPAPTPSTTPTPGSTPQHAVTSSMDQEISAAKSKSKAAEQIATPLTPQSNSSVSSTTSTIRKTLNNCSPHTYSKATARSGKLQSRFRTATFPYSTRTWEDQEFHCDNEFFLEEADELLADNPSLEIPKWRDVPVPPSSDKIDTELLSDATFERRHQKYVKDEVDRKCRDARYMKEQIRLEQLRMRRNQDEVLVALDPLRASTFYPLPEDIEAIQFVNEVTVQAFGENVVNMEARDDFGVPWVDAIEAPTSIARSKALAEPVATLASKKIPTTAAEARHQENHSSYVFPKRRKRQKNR

- binding [1]: binds
- binding [2]: binds
B1: MSL2-3xFLAG (protein, UniProt P50534 1-773)
chain: MAQTAYLKVTRIAMRSASNLSKRRVEELNSGLGELRQLLSCVVCCQLLVDPYSPKGKRCQHNVCRLCLRGKKHLFPSCTQCEGCSDFKTYEENRMMAAQLLCYKTLCVHLLHSALFGELAGMRPQVARELVPRIKLPPKTTQEFIREGSNISDTFDIFLPQPDLPFLKDMPTSLPAETPPTSAVTTPELPYDHHLNISDIEAEAAATAEQGHFSPLPLLPTGSRMGMLSHAGQIVIATESSESGFMDQAWTDQVDLSGTVSVSKYTNSGNNFAVSYVMPTSATTKFDPQELQIGQVVQMADSTQLAVLAAVEETVETSTQLTVLSTTVEETVETSTQLEVLTSAEEPNEISDQLANLQVEESDEALVEETVEEAEGTSIPSEVVAEHMEEDQHLDVHTSQSPTQTEMEEAVEEHVATKTQLGHVQTELQDAESLQKDFEDAKAAAEEAKEKEKDLHAISAELQKEDSDEPTLKRKRTRTLKASQAAKIEPVPSEVKTKVQSGKGALRRIRGKDKEEKVKPPKPKCRCGISGSSNTLTTCRNSRCPCYKSYNSCAGCHCVCCKNPHKEDYVESDEDDDLEDFEMPKDVPEPMTQSEEPVVAEPRQEENSMAPPDSSAPISLVPLNNLQQSQHPLVLVQNEKGEYQGFNIFQGSKPLDPVTVGFTIRVQLQHTDGFGSLPQYAYIMPTIDPPNPPAPSLSPPPPPAPDREVIEPPAKKFRTSRTRRGRANFSALDTVDELVSGGSRSNSAAGDRSSATDNAHSLFEEIMSGSDDL
